Source: paper PMC6412872
Negatives hold for the conditions tested. At least one verdict rests on a figure or table, not on a statement of the authors. Construct, isoform or probe ends are uncertain for at least one entry.

What was measured:
[1] = test system: thrombin (human); assay: lateral flow sandwich assay; conditions: PBST (PBS 0.01 M pH 7.4 + Tween) + 1% BSA running buffer, 10 min lateral flow assay, temperature not stated, commercial protein, single-stranded DNA
[2] = target: PDGF-BB (UniProt P01127); assay: lateral flow sandwich assay; conditions: PBST (PBS 0.01 M pH 7.4 + Tween) + 1% BSA running buffer, 10 min lateral flow assay, temperature not stated, commercial protein, single-stranded DNA

## AGTCCGTGGTAGGGCAGGTTGGGGTGACT [thrombin capture aptamer]
[1]; sandwich with AuNP-N1, 50 nM thrombin, 3' BioTEG, label: 3' biotin (streptavidin on membrane)
  binding result: binds
[2]; 50 nM PDGF-BB alone, no interference on thrombin test zone, 3' BioTEG, label: 3' biotin (streptavidin on membrane)
  binding result: no binding

## TACTCAGGGCACTGCAAGCAATTGTGGTCCCAATGGGCTGAGTAT [PDGF-BB detection aptamer]
[2]; sandwich with N4, 50 nM PDGF-BB, 5' ThioMC6-D, label: AuNP via 5' thiol
  binding result: binds

## TACTCAGGGCACTGCAAGCAATTGTGGTCCCAATGGGCTGAGTA [PDGF-BB capture aptamer]
[1]; 50 nM thrombin alone, no interference on PDGF-BB test zone, 3' BioTEG, label: 3' biotin (streptavidin on membrane)
  binding result: no binding
[2]; sandwich with AuNP-N3, 50 nM PDGF-BB, 3' BioTEG, label: 3' biotin (streptavidin on membrane)
  binding result: binds

## TTTTTTTTTTTTTTTTTTTTGGTTGGTGTGGTTGG [thrombin detection aptamer]
[1]; sandwich with N2, 50 nM thrombin, 5' ThioMC6-D, label: AuNP via 5' thiol
  binding result: binds
